# Among all 320,000 compounds or so, about 22,000 (6.9%) were called active. Inconclusive results, whose numbers are uncertain, are shown with a selection of clear calls. The call rests on the fitted dose curve; in most records, active means well fitted inhibition curve with a large enough effect; inconclusive means small, poorly fitted or top-dose-only effect, or another doubt; inactive means no such curve, though single readings can be large or run the other way. A potency beside an inconclusive call is a rough fit, not a confirmed value.
# Assay: Primary qHTS for delayed death inhibitors of the malarial parasite plastid, 96 hour incubation
# Conditions: P. falciparum luciferase reporter growth; series mostly up to 28.7 µM
# How it was run: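 96 h incubation, 37 C, 5% CO2, of luciferase-reporter P. falciparum-infected RBCs (2% hematocrit, 0.05% parasitemia final) with test compounds; endpoint luminescence.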
# Potency means the concentration at half of the fitted maximal effect.
row,Structure (SMILES),Potency
1,O=C(c1ccccc1)N1CCN(C(=O)c2nn3c(C(F)(F)F)cc(-c4ccco4)nc3c2Br)CC1,inactive
2,CCN(CC)S(=O)(=O)c1cc(Br)ccc1OC,inactive
3,Cc1cccc(-n2c(C)nc3cc(C(=O)NCC4CCCO4)ccc32)c1 (configuration not stated),"inconclusive: 4.15 µM [inhibitor, partial curve, poor fit]"
4,Cn1c(=O)oc2cc(S(=O)(=O)NC3CCCCCCC3)ccc21,"inconclusive: 5.22 µM [inhibitor, partial curve, poor fit]"
5,COc1ccc2c(c1)CCC1=C2NC(=S)NC1c1ccc(N(C)C)cc1 (configuration not stated),"inconclusive: 3.7 µM [inhibitor, partial curve, poor fit]"
6,CCCCCCC(C)n1[nH]c(=O)c2c(C)cc(C)nc21 (configuration not stated),inactive
7,Cc1ccc(NC(=O)[C@@H]2CCCN2C(=O)c2cccs2)cc1S(=O)(=O)N1CCCCC1,"inconclusive: 18.5 µM [inhibitor, single point]"
8,C=C(C)COc1ccc(-c2[nH]ncc2-c2ccc(OC)cc2)c(O)c1,"inconclusive: 3.29 µM [inhibitor, single point]"
9,C/C(=N\NC(=O)c1cccnc1)c1c(O)cc(C)oc1=O,inactive
10,Cc1cc(NC(=O)COC(=O)c2cc(S(=O)(=O)N(C)C)ccc2Cl)no1,inactive
11,Cc1cc(C(=O)NCC(c2ccco2)N2CCCC2)c2ccccc2n1 (configuration not stated),active: 10.4 µM
12,O=C(O)c1ccccc1NC1CCCCC1NS(=O)(=O)c1ccccc1 (configuration not stated),"inconclusive: 1.65 µM [inhibitor, partial curve, poor fit]"
13,O=C1OC(C(=O)NCc2ccccc2)Cc2ccccc21 (configuration not stated),inactive
14,COc1ccc(C(=O)NC(=S)N2CCOCC2)cc1Br,"inconclusive: 2.94 µM [inhibitor, partial curve, poor fit]"
15,O=C1NC(=S)NC(=O)C1=Cc1ccc(Br)s1,"inconclusive: 18.5 µM [inhibitor, single point]"
16,O=C(NCCCCNC(=O)c1ccccc1F)c1ccccc1F,"inconclusive: 11.7 µM [inhibitor, partial curve]"
17,COC(=O)C1=C(N)Oc2cc(N(C)C)ccc2C1c1ccccc1OC (configuration not stated),inactive
18,Cn1c(C(=O)NCCN2CCOCC2)cc2sccc21,inactive
19,N#Cc1ccsc1NC(=O)CN1CCN(c2ccc(O)cc2)CC1,"inconclusive: 11.7 µM [inhibitor, single point]"
20,CCCCN(CCCNc1ncnc2nc[nH]c12)c1ccccc1,active: 11.7 µM
21,Oc1cc(Cl)cc(Cl)c1Cl,"inconclusive: 5.22 µM [inhibitor, single point]"
22,Cc1cc2cc(C(c3nnnn3Cc3ccco3)N3CCc4ccccc43)c(=O)[nH]c2cc1C (configuration not stated),"inconclusive: 18.5 µM [inhibitor, single point]"
23,S=c1[nH]cc(-c2ccccc2)[nH]1,"inconclusive: 18.5 µM [inhibitor, single point]"
24,CN1CCN(CCC(=O)N/N=C/c2cc3c(cc2[N+](=O)[O-])OCO3)CC1,inactive

row,Structure (SMILES),Potency
1,CCN1C(=O)C2(SC(NC(C)=O)=NN2C(C)=O)c2cc(C)ccc21 (configuration not stated),"inconclusive: 10.4 µM [inhibitor, single point]"
2,COC(=O)c1cc2c(ccn2-c2ccc(F)cc2)n1Cc1ccc(OC)cc1,"inconclusive: 11.7 µM [inhibitor, single point]"
3,CC(C(=O)NN)c1ccc([N+](=O)[O-])cc1 (configuration not stated),inactive
4,O=C(N/N=C/c1ccco1)c1cc2ccccc2o1,inactive
5,O=c1c2ccccc2ncn1CCCSc1ccccc1,"inconclusive: 0.104 µM [inhibitor, full curve, poor fit]"
6,Cc1cc(=O)[nH]c(Nc2cccc(C(F)(F)F)c2)n1,active: 13.1 µM
7,Cc1ccc(-c2cnc(SCCNC(=O)c3ccco3)[nH]2)cc1,"inconclusive: 11.7 µM [inhibitor, single point]"
8,CCN(CC)CCCNC(=O)c1cn(CC)c2ccc(S(=O)(=O)N3CCc4ccccc4C3)cc2c1=O,"inconclusive: 5.86 µM [inhibitor, partial curve, poor fit]"
9,O=C(NCCCN1CCOCC1)C(=O)N/N=C/c1c2ccccc2cc2ccccc12,"inconclusive: 18.5 µM [inhibitor, single point]"
10,COC(=O)c1ccc(C(=O)N2CCCC(Nc3ccc(C(C)C)cc3)C2)cc1 (configuration not stated),"inconclusive: 18.5 µM [inhibitor, single point]"
11,CCCC(=O)Nc1ccc2oc(-c3cncc(Br)c3)nc2c1,"inconclusive: 0.0029 µM [inhibitor, full curve, poor fit]"
12,C=C(C)COc1ccc(-c2ncncc2-c2ccccc2OC)c(O)c1,"inconclusive: 0.522 µM [inhibitor, full curve]"
13,Cc1cccc(NC(=O)COC(=O)CCc2ccccc2)c1C,"inconclusive: 9.28 µM [inhibitor, single point]"
14,NC(=O)c1nsc(C(=O)N(Cc2cccnc2)C(C(=O)NCc2ccc(F)cc2)c2ccc(F)cc2)c1N (configuration not stated),inactive
15,Cc1cc(Nc2ccc(C(C)C)cc2)n2ncnc2n1,inactive
16,CCC(CC)C(=O)Nc1cccc(/C(C)=N/NC(=O)c2ccccc2Cl)c1,"inconclusive: 18.5 µM [inhibitor, single point]"
17,O=C(O)C1CC=CCC1C(=O)NNS(=O)(=O)c1ccccc1 (configuration not stated),"inconclusive: 4.15 µM [inhibitor, single point]"
18,COc1ccc(CCNC(=O)c2cccc(NS(=O)(=O)c3ccccc3F)c2)cc1OC,"inconclusive: 5.22 µM [inhibitor, partial curve, poor fit]"
19,COCCNc1nnc(SCC(=O)c2c[nH]c3ccccc23)s1,"inconclusive: 11.7 µM [inhibitor, partial curve, poor fit]"
20,CCc1nnc(SCC(=O)Nc2nnc(C)s2)n1CC1CCCO1 (configuration not stated),"inconclusive: 4.15 µM [inhibitor, single point]"
21,CC(C)NS(=O)(=O)c1ccc(NC(=O)C(C)OC(=O)C2CCC2)cc1 (configuration not stated),inactive
22,O=C(O)c1ccc2cccnc2n1,inactive
23,CC(C)C(=O)Nc1cccc(NC(=S)NC(=O)c2ccc([N+](=O)[O-])cc2)c1,inactive
24,CN(CC(=O)Nc1ccc(N2CCOCC2)cc1)C(=O)CSc1ccc(Br)cc1,"inconclusive: 18.5 µM [inhibitor, single point]"

row,Structure (SMILES),Potency
1,Cc1ccc(C)c(NC(=S)/C(=C(\[O-])c2ccc(Cl)s2)[n+]2ccccc2)c1,active: 5.86 µM
2,O=c1cc(N2CCCCC2)c(-c2ccccc2)nn1Cc1cccc(Cl)c1,"inconclusive: 16.5 µM [inhibitor, partial curve, poor fit]"
3,O=C(CCNS(=O)(=O)c1ccccc1)OCc1nc2ccsc2c(=O)[nH]1,inactive
4,COc1ccccc1CNc1cc(-c2ccccc2)ccc1OC,active: 9.28 µM
5,Cc1ccc(S(=O)(=O)N(CC(=O)N2CCCCC2)c2cccc(C)c2)cc1,"inconclusive: 9.28 µM [inhibitor, partial curve, poor fit]"
6,Cc1cc(OC(C)C(=O)N(Cc2cccs2)C2CCS(=O)(=O)C2)ccc1Cl (configuration not stated),"inconclusive: 13.1 µM [inhibitor, single point]"
7,Cc1ccc(O)c(C(=O)/C=C/c2ccc3c(c2)OCCO3)c1,"inconclusive: 18.5 µM [inhibitor, single point]"
8,COc1ccc2cc(OCC(=O)NNC(=O)Nc3ccc(C(C)=O)cc3)ccc2c1,inactive
9,COc1ccc(C(=O)CC(=O)C(=O)Nc2cccc(F)c2)cc1,"inconclusive: 11.7 µM [inhibitor, single point]"
10,COc1ccc(CCNC(=O)c2cnccn2)cc1,"inconclusive: 10.4 µM [inhibitor, single point]"
11,CCC(C)NC(=O)CSc1c2c(nc3ccccc13)CCCC2 (configuration not stated),"inconclusive: 18.5 µM [inhibitor, single point]"
12,CCCCc1ncc(CN2CCC(n3nccc3NC(=O)c3ccccc3OC)CC2)[nH]1,"inconclusive: 13.1 µM [inhibitor, partial curve, poor fit]"
13,Cc1cc(NC(NC(=O)c2ccco2)(C(F)(F)F)C(F)(F)F)no1,"inconclusive: 11.7 µM [inhibitor, partial curve, poor fit]"
14,CC(C)(C)C(=O)N1CCN(C(=O)c2ccco2)CC1,"inconclusive: 18.5 µM [inhibitor, single point]"
15,O=C(NC1CCCCC1)c1cccc(Cn2cc(Cl)cn2)c1,inactive
16,O=C(Cn1ccc(NC(=O)OCc2ccccc2)nc1=O)NCCCc1ccccc1,inactive
17,CCCCCCCC(O)CC(CC1CCCCC1)C(=O)NN (configuration not stated),"inconclusive: 10.4 µM [inhibitor, single point]"
18,COc1cc(CN(C)Cc2nc3cc(C(F)(F)F)ccc3c(=O)[nH]2)ccc1OC(F)F,"inconclusive: 18.5 µM [inhibitor, single point]"
19,O=C(N/N=C/c1cn(-c2ccccc2)nc1-c1cccnc1)c1ccccc1,"inconclusive: 4.65 µM [inhibitor, partial curve, poor fit]"
20,CN(c1ccc(C(=O)Nc2ccc3c(c2)OCO3)cc1)S(C)(=O)=O,inactive
21,CN(C)c1ccc(/C=C(/NC(=O)c2ccccc2)C(=O)N/N=C/c2ccc([N+](=O)[O-])c(O)c2)cc1,active: 5.22 µM
22,Cc1nn(-c2ccc(Cl)cc2)c2[nH]c(=O)c(CNCc3ccc4c(c3)OCO4)cc12,inactive
23,O=C(NS(=O)(=O)c1ccc(Cl)s1)c1ccccc1,"inconclusive: 13.1 µM [inhibitor, partial curve, poor fit]"
24,CCCS(=O)(=O)N1CCCC(C(=O)NCCCN(CC)c2cccc(C)c2)C1 (configuration not stated),"inconclusive: 18.5 µM [inhibitor, single point]"

# Part of the list above, bar-delimited.
row | Structure (SMILES) | Potency
6 | Cc1cc(OC(C)C(=O)N(Cc2cccs2)C2CCS(=O)(=O)C2)ccc1Cl (configuration not stated) | inconclusive: 13.1 µM [inhibitor, single point]
9 | COc1ccc(C(=O)CC(=O)C(=O)Nc2cccc(F)c2)cc1 | inconclusive: 11.7 µM [inhibitor, single point]
10 | COc1ccc(CCNC(=O)c2cnccn2)cc1 | inconclusive: 10.4 µM [inhibitor, single point]
11 | CCC(C)NC(=O)CSc1c2c(nc3ccccc13)CCCC2 (configuration not stated) | inconclusive: 18.5 µM [inhibitor, single point]
24 | CCCS(=O)(=O)N1CCCC(C(=O)NCCCN(CC)c2cccc(C)c2)C1 (configuration not stated) | inconclusive: 18.5 µM [inhibitor, single point]
